PubChem BioAssay AID652272 | Drosophila RNAi Screening Center | 2013

Purpose: 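Finding fly genes that regulate Hedgehog signal transduction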 (primary screen)
System: Drosophila clone 8 (Cl8) cells
Reagents: long dsRNA against Drosophila genes
Measured: 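Plate reader light from a firefly reporter under a ptc promoter fragment that responds to Hedgehog, with Renilla light as transfection reference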
Scale: firefly Hh reporter signal: higher = more ptc reporter light; Renilla reference signal: higher = more Renilla control light
Rule for the call: 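Called a hit if the two-replicate mean z-score lies below -2 or above +3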
Calls: active = hit: reporter lowered or raised; inactive = not a hit
The deposit covers about 21,000 reagents; shown is an unselected part of those that have a named target and a result. Of all reagents, 503 (2.4%) are marked active. 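Raw plate light values, not normalised; calls rest on replicate z-scores that were not deposited; hits include reporter decreases as well as increases.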 Unmarked entries are inactive. The record does not give: the amount of reagent, the time to read-out.

l(1)G0320 [DRSC18255]
- firefly Hh reporter signal, replicate 1: 79298
- firefly Hh reporter signal, replicate 2: 52689
- Renilla reference signal, replicate 1: 2129
- Renilla reference signal, replicate 2: 1305

TwdlL [DRSC16042]
- firefly Hh reporter signal, replicate 1: 1.56e5
- firefly Hh reporter signal, replicate 2: 90503
- Renilla reference signal, replicate 1: 3440
- Renilla reference signal, replicate 2: 2283

Glut3 [DRSC16681]
- firefly Hh reporter signal, replicate 1: 88563
- firefly Hh reporter signal, replicate 2: 90227
- Renilla reference signal, replicate 1: 3174
- Renilla reference signal, replicate 2: 2589

Bet5 [DRSC14600]
- firefly Hh reporter signal, replicate 1: 96208
- firefly Hh reporter signal, replicate 2: 1.08e5
- Renilla reference signal, replicate 1: 2612
- Renilla reference signal, replicate 2: 3239

pHCl-1 [DRSC09401]
- firefly Hh reporter signal, replicate 1: 2.34e5
- Renilla reference signal, replicate 1: 5952

pHCl-1 [DRSC09888]
- firefly Hh reporter signal, replicate 1: 75344
- Renilla reference signal, replicate 1: 3856
- Renilla reference signal, replicate 2: 2365

pHCl-1 [DRSC09991]
- firefly Hh reporter signal, replicate 1: 96005
- Renilla reference signal, replicate 1: 5901
- Renilla reference signal, replicate 2: 2932

pHCl-1 [DRSC10589]
- firefly Hh reporter signal, replicate 1: 1.04e5
- Renilla reference signal, replicate 1: 5362
- Renilla reference signal, replicate 2: 3264

Orcokinin [DRSC04202]
- firefly Hh reporter signal, replicate 1: 1.14e5
- firefly Hh reporter signal, replicate 2: 65200
- Renilla reference signal, replicate 1: 3091
- Renilla reference signal, replicate 2: 6154

SecCl [DRSC10887]
- firefly Hh reporter signal, replicate 1: 1.21e5
- Renilla reference signal, replicate 1: 4268
- Renilla reference signal, replicate 2: 3283

CG11626 [DRSC14336]
- firefly Hh reporter signal, replicate 1: 6.10e5
- firefly Hh reporter signal, replicate 2: 93801
- Renilla reference signal, replicate 1: 28850
- Renilla reference signal, replicate 2: 2147

CG11970 [DRSC14157]
- firefly Hh reporter signal, replicate 1: 1.17e5
- firefly Hh reporter signal, replicate 2: 83440
- Renilla reference signal, replicate 1: 3594
- Renilla reference signal, replicate 2: 2348

Lrr47 [DRSC03365]
- firefly Hh reporter signal, replicate 1: 55512
- firefly Hh reporter signal, replicate 2: 1.22e5
- Renilla reference signal, replicate 1: 2416
- Renilla reference signal, replicate 2: 3921

cer [DRSC05992]
- firefly Hh reporter signal, replicate 1: 1.16e5
- firefly Hh reporter signal, replicate 2: 74544
- Renilla reference signal, replicate 1: 3025
- Renilla reference signal, replicate 2: 5634

No new results follow: entries from further up.
Bet5 [DRSC14600]
- firefly Hh reporter signal, replicate 1: 96208
- firefly Hh reporter signal, replicate 2: 1.08e5
- Renilla reference signal, replicate 1: 2612
- Renilla reference signal, replicate 2: 3239

pHCl-1 [DRSC09401]
- firefly Hh reporter signal, replicate 1: 2.34e5
- Renilla reference signal, replicate 1: 5952
